# Percent effect of library compounds

Source: ChEMBL document CHEMBL3988442, “University of Dundee, Small-Polar-MMV Screening Library” (2021).

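Whole-cell growth test on Mycobacterium tuberculosis, read after 3 days in glucose-containing 7H9 medium; the read-out is not stated. Compounds at 50 µM. Direction is inferred from retests: higher values go with more growth inhibition. About 69,000 compounds were tested under these conditions; 1.1% (about 760) showed 50% or more at least once.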

The filed quantity is “Percent Effect” (%).
The controls that fix the scale are not given in the record; negative values are as filed.
Compounds were drawn at random from those tested, without regard to their results.
Two or more numbers in one place are separate tests of the same structure; such repeats can differ widely.

* CC(=O)N1CCCN(C(=O)Nc2ccccc2N2CCOC2=O)CC1 : -23.31%
* Cn1ccc(CN2CCCC(CNS(C)(=O)=O)C2)cc1=O (configuration not stated) : 1.168%
* O=c1[nH]c(CCN2CCCC2Cn2cncn2)nc2ccccc12 (configuration not stated) : 33.18%
* Cc1nnc(N(CCC#N)CCC#N)s1 : -29.16%
* COc1ccc(C[C@H]2CNCC[C@@H]2OC)cc1.O=C(O)C(F)(F)F : -4.961%
* Cc1ccc2oc(=O)n(CCC(=O)N3CCC4(CN(C)C(=O)O4)C3)c2c1 (configuration not stated) : -6.455%
* COc1ccc(F)cc1-c1nc2c([nH]1)c(C1CC1)nn2C : 9.155%
* Cc1nn2cccnc2c1C(=O)NCc1ccccc1OC1CCC1 : -9.212% & 4.5%
* [H][C@@]12CN(C(=O)C3CCOCC3)C[C@@]1([H])N(CC)C(=O)CO2 : -3.48%
* Cc1nc(CNC(=O)N(Cc2ccccc2)CC(C)(C)O)oc1C : 11.02% & 14.66%
* Cc1nc(C)c(CC(=O)N2C[C@@H](C(=O)O)[C@H](c3ccncc3)C2)s1 : -36.74% & -4.18%
* Cc1ccccc1OC1CCN(S(=O)(=O)c2c(C)n[nH]c2C)CC1 : 32.38%
* O=C(NCC1(O)CCc2ccccc21)Nc1ccc2c(c1)OCO2 (configuration not stated) : 22.09%
* NS(=O)(=O)NCc1cc(-c2ccco2)n(CC(F)(F)F)n1 : 6.547%
* O=C(NCc1ccco1)N1CCN(Cc2ccc3c(c2)CCO3)CC1 : 82%
* O=C1NCCc2c1sc1ccc(C(=O)N3CC[C@H](CO)[C@H](O)C3)cc21 : -5.808%
* O=C(Cc1ccc2c(c1)OCCO2)NC1CCN(CC(F)F)CC1 : -15.71%
* COCCNc1ccc(CC2CCCN(c3ncccn3)C2)nn1 (configuration not stated) : -7.247%
* CNC(=O)CCc1cc(C2CCCN2S(C)(=O)=O)nc(C)n1 (configuration not stated) : -14.07%
* COc1ccc(C(CC(=O)O)NC(=O)CCc2cccs2)cc1OC (configuration not stated) : 16.39%
* [H][C@@]12CCN(S(=O)(=O)c3cccnc3)C[C@]1(c1nc(C)no1)CCO2 : 21.33%
* Cc1n[nH]c(C)c1CCC(=O)N1CCc2c(nc[nH]c2=O)C1 : 6.239%
* [H][C@@]12CCN(c3ncccn3)[C@@]1([H])CCN2Cc1cccs1 : -1.429% & 10.77%
* CCNC(=O)NC[C@H]1Cn2c(-c3ccccc3)cnc2CO1 : -1.869% & -10.28%
* O=C(O)C(F)(F)F.O=C(O)C(F)(F)F.[H][C@@]12CN(Cc3cccs3)C[C@]1([H])C(=O)N(CCN1CCCC1)C2 : 0.2389%
* c1coc(-c2nc(CN3CCCC(Cn4cncn4)C3)cs2)c1 (configuration not stated) : -44.84%
* O=C(CN(CC(O)c1ccc(F)cc1)C1CC1)Nc1cccnc1 (configuration not stated) : -29.61%
* O=C(O)C(F)(F)F.O=C(O)C(F)(F)F.c1cncc(OCc2nnn3c2CN(Cc2ccsc2)CCC3)c1 : 18.68%
* CCC(CNC(=O)c1cc(CC(C)C)nn1C)N(C)CC (configuration not stated) : 18.08%
* Cc1cc2n(n1)CC(CNC1CCN(Cc3ccccn3)CC1)CN2 (configuration not stated) : 20.06% & 2.341%
* Cn1cnc(S(=O)(=O)N2CCCn3cnc(CN4CCCC4)c3C2)c1 : -13.88% & 6.245%
* Cc1cc(C(=O)N2CCN(Cn3cc(Cl)cn3)CC2)c(C)o1 : -15.23%
* CN(Cc1ccco1)C(=O)Nc1cccnc1N1CCCC1 : 25.07%
* CCCN(CCC)c1ncc(S(=O)(=O)c2ccccc2)c(N)n1 : 25.22% & 40.08%
* Cn1nccc1-c1nnn2c1COCC(CNCC1CC1)C2.O=C(O)C(F)(F)F.O=C(O)C(F)(F)F (configuration not stated) : -9.969%
* CCN(Cc1ccoc1)C(=O)Nc1ccccc1CN1CCOCC1 : 23.42% & 0.66%
* CN(C1CCN(c2ccccn2)CC1)S(=O)(=O)c1cccc(F)c1 : 18.62%
* CCCC(=O)N(C)c1cc(C#N)c2ccccc2n1 : -27.38% & 27.31%
* CC(C)(C)OC(=O)NC1CCCN(Cc2cccc(O)c2)C1 (configuration not stated) : 5.456%
* Cc1ccn(C)c(=O)c1NC(=O)N(C)Cc1cccc(OC(C)C)c1 : -0.2829% & -0.6644%
* CS(=O)(=O)N1Cc2nccn2CC(CN2CCCC2=O)C1 (configuration not stated) : -3.186% & -13.61%
* CN1CCOC(C(=O)N2CCC3(CCCCC3)C2)C1 (configuration not stated) : -19.55%
* Cc1noc(C)c1CN1C[C@@H](C(=O)O)[C@H](C(C)C)C1 : 2.377%
* Cc1nn(C)cc1C(=O)N1CCCC(n2cncn2)C1 (configuration not stated) : -1.042%
* O=C(CCCc1ccccn1)NCC(O)c1ccccc1Cl (configuration not stated) : 31.16%
* CNc1cc(N2CCCC2CNCc2cnc(C)cn2)ncn1 (configuration not stated) : -11.08%
* CCC1CN(CCCO)c2ccccc2O1 (configuration not stated) : 15.16% & -5.877%
* CN(C)c1ncnc2c1CCN(c1cc(C(F)(F)F)ncn1)CC2 : -7.598% & -4.235%
* Cn1cc(CCCNC(=O)NC2CCN(CC(F)(F)F)C2=O)cn1 (configuration not stated) : -43.57%
* O=C1CCNc2ccccc2CN1Cc1ccco1 : -6.856%
* CCOCC1c2c(ncn2C(C)C)CCN1C(=O)CC (configuration not stated) : -8.755% & -26.48%
* c1ccc(-c2cnc(CN3CCn4c(nnc4C4CC4)C3)o2)cc1 : -15.57%
* Cn1ncc2cnn(CC(O)COCc3ccccc3Cl)c2c1=O (configuration not stated) : 21.14%
* COC(=O)c1ccc(OCC(=O)N(C)Cc2ccsc2)c(OC)c1 : -9.365%
* COCCN1CCN(Cc2nc(-c3ccoc3)no2)CC1 : -31.69%
* [H][C@]12CNCCN1C[C@@H](C(=O)OCC)[C@@H]2c1ccccc1 : -0.2396%
* Cc1cnc(CN(C)C2CCN(Cc3cnc(C)s3)C2)o1 (configuration not stated) : -12.26%
* O=C(O)C(F)(F)F.O=C(O)C(F)(F)F.[H][C@@]12COC[C@]1(CNS(=O)(=O)CC)CN(Cc1ccncc1)C2 : -0.7033%
* Cc1cc(C)nc(NC(=O)C(C)Oc2ccc3c(c2)OCO3)n1 (configuration not stated) : -4.393%
* O=C(O)C1CCCN(c2nc3c(-c4ccccc4)csc3c(=O)[nH]2)C1 (configuration not stated) : -0.4045% & 2.492%